In all, about 390,000 compounds went through this assay and about 760 (0.19%) were called active. This list was built around the results that the source calls inconclusive (neither active nor inactive); the mix of calls is not that of the screen. Calls come from the whole dose curve; as a rule, active = well fitted inhibition curve with a large enough effect; inconclusive = small, poorly fitted or top-dose-only effect; inactive = flat fitted curve, though single readings scatter. Potencies of inconclusive entries are doubtful fits and often do not repeat.
Assay: qHTS for Inhibitors of Vif-A3F Interactions: qHTS; note: nearly all actives have a fitted effect of over 65% in size
Details: HeLa A3F-eYFP + Vif (tagged APOBEC3F with the HIV-1 protein that degrades it), YFP fluorescence increase; series mostly up to 46.1 µM
In short: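 Fluorescence increase (Ex 488/Em 500-530) after overnight compound treatment at 37 deg C flags inhibition of Vif-driven A3F-eYFP loss in stable HeLa A3F-eYFP/Vif cells seeded overnight beforehand.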
Potency is the fitted concentration of half-maximal effect.

SMILES	Potency
COC(=O)c1c(NC(=O)c2nc(SC)ncc2Cl)sc2c1CCCC2	inconclusive: 35.5 µM [inhibitor, single point]
O=C(NC(=S)Nc1c(Cl)cc(Cl)cc1Cl)c1ccccc1	active: 4.47 µM
COc1cccc(CNS(=O)(=O)c2ccc3c(c2)NC(=O)CS3)c1	inactive
O=C(c1cc(-c2cccc(O)c2)on1)N1CCN(C(c2ccccc2)c2ccccc2)CC1	inconclusive: 22.4 µM [inhibitor, single point]
Cc1ccc(NC(=S)Nc2ccc3nc(-c4ccccn4)c(-c4ccccn4)nc3c2)cc1C	inconclusive: 35.5 µM [inhibitor, single point]
COc1ccc(C(=O)NC(C)CCc2ccccc2)c(O)c1 (configuration not stated)	inactive
CC(Nc1nc(-c2ccc(F)cc2)cs1)c1nc2cc(Cl)c(Cl)cc2n1CCOCCO (configuration not stated)	inconclusive: 35.5 µM [inhibitor, single point]
Cc1cccc(-c2nsc(SCC(=O)NCc3ccco3)n2)c1	inactive
O=C(O)C1CCC(NSc2ccccc2[N+](=O)[O-])CC1 (configuration not stated)	inconclusive: 28.2 µM [inhibitor, partial curve, poor fit]
Oc1ccc(Cl)cc1C=NN1CCCCCC1	inconclusive: 5.62 µM [inhibitor, single point]
COc1ccc(C2N(c3ccccc3)C(=S)N3CCCN23)cc1 (configuration not stated)	inconclusive: 6.31 µM [inhibitor, partial curve, poor fit]
CCCn1nc(NC(=O)c2cccc(Cl)c2)c2cc3cccc(C)c3nc21	inconclusive: 35.5 µM [inhibitor, single point]
O=C(OCCN1C(=O)c2cccc3c(N4CCOCC4)ccc(c23)C1=O)c1ccc(Cl)cc1Cl	inconclusive: 35.5 µM [inhibitor, single point]
CCOc1ccccc1Nc1nnc(-c2cc3cc(Cl)ccc3oc2=O)s1	inconclusive: 8.91 µM [inhibitor, partial curve, poor fit]
COc1cc(CNc2ccc(O)cc2)cc(Br)c1OCc1ccccc1F	inactive
CCc1cccc(CC)c1NC(=S)NC(C)c1ccccc1 (configuration not stated)	inconclusive: 17.8 µM [inhibitor, partial curve, poor fit]
COC(=O)CN1C(=O)CSc2ccc(S(=O)(=O)Nc3c(C)cc(C)cc3C)cc21	inactive
CCOC(=O)c1ccc(NC(=O)CSc2nc(-c3cccs3)cc(C(F)(F)F)c2C#N)cc1	active: 3.98 µM
Cc1sc(N/N=C/c2cc([N+](=O)[O-])ccc2O)nc1-c1ccccc1	inconclusive: 3.55 µM [inhibitor, single point]
CC(C)(C)c1cc(C(=O)NNC(=O)c2ccc(Cl)cc2)no1	inconclusive: 35.5 µM [inhibitor, single point]
COc1cc(NC(=O)c2cc3ccc4cccnc4c3[nH]2)cc(OC)c1OC	inactive
COc1ccc2ccccc2c1C1NC(=O)c2ccccc2N1 (configuration not stated)	inactive
COc1cc(/C=N/NC(=S)NC2CC3C=CC2C3)cc(OC)c1OC (configuration not stated)	inconclusive: 22.4 µM [inhibitor, single point]

Grouped by structure: the entries above with a thiophene ring, fused or not.
SMILES	Potency
COC(=O)c1c(NC(=O)c2nc(SC)ncc2Cl)sc2c1CCCC2	inconclusive: 35.5 µM [inhibitor, single point]
CCOC(=O)c1ccc(NC(=O)CSc2nc(-c3cccs3)cc(C(F)(F)F)c2C#N)cc1	active: 3.98 µM

More records

SMILES	Potency
CC(NCCCOc1cccc2ccccc12)c1ccccc1 (configuration not stated)	inconclusive: 35.5 µM [inhibitor, single point]
CCOC(=O)N1CCN(C(=O)CCCCCn2c(=S)[nH]c3cc4c(cc3c2=O)OCO4)CC1	inactive
COc1ccc(NC(=O)CSC2=C(C#N)C(c3ccco3)C(C(=O)Nc3nc4ccccc4s3)=C(C)N2)cc1 (configuration not stated)	inactive
Cn1c2ccccc2c(=O)c2ccc(C#CC3(N)CCCCC3)cc21	inconclusive: 20 µM [inhibitor, single point]
S=C(NCC1CC1)N/N=C/c1ccccc1Cl	inconclusive: 35.5 µM [inhibitor, single point]
Cc1ccc(/C=C2\SC(=S)N(CCCC(=O)Nc3cccnc3)C2=O)cc1	inactive
NNC(=O)c1oc2nc(-c3ccco3)cc(-c3ccco3)c2c1N	inconclusive: 12.6 µM [inhibitor, partial curve, poor fit]
Cc1c(-c2ccc(Cl)cc2)c(=O)oc2c(CN3CCOCC3)c(O)ccc12	inactive
O=C(CSc1ccc(Cl)cc1)N/N=C/c1ccc([N+](=O)[O-])o1	inactive
O=C(c1nc2ccccc2[nH]1)c1ccccc1[N+](=O)[O-]	inconclusive: 2.51 µM [inhibitor, full curve, poor fit]
CCOC(=O)C(C)Sc1nc2c(c(=O)[nH]c(=O)n2C)n1C/C=C(/C)Cl (configuration not stated)	inactive
Cc1noc(C)c1NC(=O)N(C)C[C@@H]1Oc2c(NC(=O)c3ccncc3)cccc2C(=O)N([C@H](C)CO)C[C@@H]1C	inconclusive: 20 µM [inhibitor, single point]
CC1(C)c2ccccc2N2CC(=O)N[C@@]21/C=C/C=C/c1ccccc1	inconclusive: 17.8 µM [inhibitor, partial curve, poor fit]
O=C(O)CCC(=O)N1CCN(c2nc(-c3ccccc3)c3ccccc3n2)CC1	inactive
CSC1=NSC2=NC(=O)/C(=C/c3coc4ccc(O)cc4c3=O)C(=N)N12	inconclusive: 20 µM [inhibitor, single point]
C=C(C)Cn1c(SCC(=O)Nc2cccc(Cl)c2)nc2sc3c(c2c1=O)CCCC3	inactive
COc1ccc(OCCCC(=O)N(CCC2=CCCCC2)c2c(N)n(Cc3ccccc3)c(=O)[nH]c2=O)cc1	inconclusive: 5.62 µM [inhibitor, single point]
NNC(=O)c1csc(-c2ccccc2)n1	inconclusive: 14.1 µM [inhibitor, single point]
COc1cccc(OC)c1OCc1cc(C2C3CCCC=C3C(C#N)=C(N)C2(C#N)C#N)c(C)cc1C (configuration not stated)	inactive
O=[N+]([O-])c1ccc(-c2ccc(/C=N/Nc3nc(N4CCCC4)nc(N4CCCC4)n3)o2)cc1	inconclusive: 3.98 µM [inhibitor, partial curve, poor fit]
N#Cc1c(N)n(C2OC(CO)C(O)C2O)c2ncnc(N)c12 (configuration not stated)	inconclusive: 0.562 µM [inhibitor, full curve, poor fit]
Nc1cc(C(=O)O)c(N)c2c1C(=O)c1ccccc1C2=O	inconclusive: 22.4 µM [inhibitor, single point]
O=C(CCc1nc2ccccc2c(=O)[nH]1)N1CCCc2ccccc21	inconclusive: 11.2 µM [inhibitor, partial curve, poor fit]

SMILES	Potency
CCCCC(=O)Nc1ccccc1C(=O)OCC(=O)c1ccc2c(c1)OCCO2	inconclusive: 0.562 µM [inhibitor, full curve, poor fit]
Cc1ccc(NC(=O)Nc2ccc(F)cc2)cc1Cl	inconclusive: 20 µM [inhibitor, single point]
CC(=O)Nc1cccc(/C(C)=N/Nc2nc3ccccc3s2)c1	inconclusive: 35.5 µM [inhibitor, single point]
CN(NS(=O)(=O)c1ccc(Cl)cc1)c1ncc(C(F)(F)F)cc1Cl	inconclusive: 11.2 µM [inhibitor, single point]
Cc1cccc(N2CCN(c3ncnc4c3c(-c3ccccc3)cn4-c3ccccc3)CC2C)c1 (configuration not stated)	inactive
CCC(=O)N1CCc2cc(S(=O)(=O)NCCC(=O)Nc3ccc(OC)c(OC)c3)ccc21	inactive
CNc1ccc(/C=C/C(=O)c2ccc(C)cc2)cc1[N+](=O)[O-]	inconclusive: 35.5 µM [inhibitor, single point]
COc1cccc(C(=O)Nc2c3c(nn2-c2ccc(Cl)cc2)CS(=O)(=O)C3)c1	inactive
O=C(O)c1ccc2c(c1)C(=O)N(c1cccc(-c3nc4ccccc4s3)c1)C2=O	inconclusive: 35.5 µM [inhibitor, single point]
Cn1ncc(N=Cc2c(O)ccc3ccccc23)c1C(=O)Nc1cccc(Cl)c1	inconclusive: 3.55 µM [inhibitor, full curve, poor fit]
NC(=S)N/N=C/c1ccccc1OCCSc1ccc(Cl)cc1	inconclusive: 3.55 µM [inhibitor, partial curve, poor fit]
COc1cc(OC)cc(-c2cc3nc(C)c(CCC(=O)NC(C)CCc4ccco4)c(C)n3n2)c1 (configuration not stated)	inactive
Nc1nc(Nc2ccccc2F)nc(NCc2ccccc2)c1[N+](=O)[O-]	inconclusive: 35.5 µM [inhibitor, single point]
COc1ccc(-c2csc(N(CCCN(C)C)C(=O)c3ccc(C(C)(C)C)cc3)n2)cc1	inconclusive: 25.1 µM [inhibitor, single point]
O=C(CSc1ccc2ccccc2n1)NC1CC1	inconclusive: 6.31 µM [inhibitor, single point]
O=C1C(=Cc2ccco2)CCC1=Cc1ccco1	inconclusive: 35.5 µM [inhibitor, single point]
CSc1ccccc1NC(=O)CN(C)C(=O)CNc1ccc(C(F)(F)F)cc1[N+](=O)[O-]	inconclusive: 25.1 µM [inhibitor, single point]
COc1ccc(C2c3[nH]c4ccc(OC)cc4c3CCN2C(=O)Nc2ccccc2)cc1 (configuration not stated)	inactive
N/C(=N\OC(=O)Nc1ccccc1)c1ncc([N+](=O)[O-])s1	inconclusive: 3.16 µM [inhibitor, partial curve, poor fit]
O=C(/C=C/c1cn(CC(O)CN2CCCCCC2)c2ccccc12)c1ccc(Br)cc1 (configuration not stated)	inconclusive: 25.1 µM [inhibitor, single point]
CSc1ncccc1C(=O)OCCCC(=O)c1ccc(F)cc1	inconclusive: 35.5 µM [inhibitor, single point]

Source: PubChem BioAssay AID602313 (National Center for Advancing Translational Sciences (NCATS), 2012)
